# Results published in the supplement of paper PMC3334620.
# The full ranking holds about 33,000 sequences; the median of “E-score (-0.5 to 0.5)” is about -0.0059, and the highest 2% start at about 0.26. Some of the results follow.
# Target: T1, Cin5 (UniProt P40917)
# T1 sequence: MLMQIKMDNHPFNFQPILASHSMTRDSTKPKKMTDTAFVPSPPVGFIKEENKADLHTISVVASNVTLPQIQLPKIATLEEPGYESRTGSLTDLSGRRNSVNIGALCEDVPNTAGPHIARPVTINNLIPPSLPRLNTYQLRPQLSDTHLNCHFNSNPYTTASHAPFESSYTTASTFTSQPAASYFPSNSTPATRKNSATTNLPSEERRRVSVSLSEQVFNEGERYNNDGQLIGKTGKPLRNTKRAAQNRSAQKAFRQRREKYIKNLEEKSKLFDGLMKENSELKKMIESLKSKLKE
# Assay: PBM E-score (8-mer binding enrichment) (E-score (-0.5 to 0.5)); higher = stronger / more preferred TF binding
# Conditions: protein concentration: 100 nM; construct: GST-full length
# How it was run: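 E-scores (a modified Wilcoxon-Mann-Whitney statistic) were assigned by the Universal PBM Analysis Suite to every ungapped eight-base word pooled with its reverse complement. The input came from universal all-10-mer Agilent arrays made double-stranded by primer extension and probed with GST-tagged yeast transcription factors at about 100-200 nM. Fluorescent anti-GST detected bound protein, and masliner normalised the scans.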
row,Sequence,PBM E-score
1,ACAATCCC,0.117
2,AGTACTCA,-0.00067
3,GTACCGGA,-0.00967
4,CCGGGATA,0.08
5,CGCCGTCC,-0.0945
6,GGGGGTTA,-0.444
7,CTATGTGC,-0.038
8,AGTCGTGA,-0.0941
9,CGGGCGAC,-0.243
10,AGCATGCG,-0.00219
11,CCGGTCTC,-0.235
12,ACTAGAGA,-0.0579
13,GGGGTTAC,-0.237
14,CTTGGACC,-0.323
15,CGGGAATA,0.142
16,AGCAGAAC,-0.0245
17,GACCATAC,-0.0542
18,GGCGACCC,-0.214
19,CGTATTGC,-0.0339
20,ACGTTGGC,-0.143
21,AGCACTTG,-0.244
22,GACTGGTA,0.0326

row,Sequence,PBM E-score
1,AAACGCAG,-0.0729
2,AAGTTCAG,0.0117
3,CGCTGACC,-0.0149
4,AGTTAAGA,0.0329
5,ACCTTCCC,-0.0216
6,CTAGCACC,-0.0666
7,AGACGTCT,-0.169
8,AAATGTGT,0.177
9,AGCGAATA,0.0764
10,TCAATGCA,-0.102
11,CTGATGTA,0.266
12,AACTGTAC,-0.0314
13,GTGAATCA,-0.0693
14,CCGGCCCC,-0.337
15,GTTATACA,0.181
16,ACCTTGAG,-0.0236
17,GAACAGTA,0.128
18,GGGTAAAC,0.0797
19,CAGAATGG,0.147
20,ACCAGGGT,-0.14
21,AAATAGGG,0.0008
22,GGCACTTA,-0.103

row,Sequence,PBM E-score
1,CAGTTAGG,0.0747
2,AGTCTTAG,-0.212
3,CTCACGGC,-0.0802
4,ATTGTACC,0.0818
5,CACAGCTG,-0.0567
6,GGTACCGA,-0.36
7,TACGCCGA,-0.161
8,ACGCAGGG,-0.0529
9,CGTTTAAG,-0.0992
10,AAGCGGGG,-0.192
11,AGCTCAGC,-0.119
12,AACCATCG,0.0953
13,CTCGGTGC,-0.0668
14,AAATTTAC,-0.00308
15,GAAAAACC,0.0542
16,CGCACTGC,-0.00351
17,CACCGCCA,0.171
18,GCGTCGCC,-0.0364
19,CAATTGCC,0.00053
20,ATGCCCAC,0.0146
21,CGGTTCTA,-0.00191
22,CTCCAACC,0.0502

row,Sequence,PBM E-score
1,CCCCAGGG,-0.4
2,TAGAGAGA,-0.0994
3,GTGATAAC,0.125
4,ACAAATCA,0.19
5,AGAGATGG,0.179
6,GGATCACA,0.152
7,CGCTCATA,-0.0885
8,AGATACCC,-0.0307
9,AAGCCCGG,-0.0671
10,GACGAATC,0.0147
11,AGTAACAG,0.133
12,ACATGAGC,-0.0462
13,GAACGATA,0.0931
14,CAGACCCC,-0.377
15,ACCTCTGG,-0.25
16,AAACCCTA,0.0927
17,CTCGAAAA,-0.114
18,CAAAAACG,0.0594
19,CGGGGGCA,-0.351
20,CAACCAAG,0.0048
